From publication PMC9587022 (2022) come the findings set out here.

Protein sequences, listed by entry. Tags and fused reporters are not part of them.
UniProt P16788: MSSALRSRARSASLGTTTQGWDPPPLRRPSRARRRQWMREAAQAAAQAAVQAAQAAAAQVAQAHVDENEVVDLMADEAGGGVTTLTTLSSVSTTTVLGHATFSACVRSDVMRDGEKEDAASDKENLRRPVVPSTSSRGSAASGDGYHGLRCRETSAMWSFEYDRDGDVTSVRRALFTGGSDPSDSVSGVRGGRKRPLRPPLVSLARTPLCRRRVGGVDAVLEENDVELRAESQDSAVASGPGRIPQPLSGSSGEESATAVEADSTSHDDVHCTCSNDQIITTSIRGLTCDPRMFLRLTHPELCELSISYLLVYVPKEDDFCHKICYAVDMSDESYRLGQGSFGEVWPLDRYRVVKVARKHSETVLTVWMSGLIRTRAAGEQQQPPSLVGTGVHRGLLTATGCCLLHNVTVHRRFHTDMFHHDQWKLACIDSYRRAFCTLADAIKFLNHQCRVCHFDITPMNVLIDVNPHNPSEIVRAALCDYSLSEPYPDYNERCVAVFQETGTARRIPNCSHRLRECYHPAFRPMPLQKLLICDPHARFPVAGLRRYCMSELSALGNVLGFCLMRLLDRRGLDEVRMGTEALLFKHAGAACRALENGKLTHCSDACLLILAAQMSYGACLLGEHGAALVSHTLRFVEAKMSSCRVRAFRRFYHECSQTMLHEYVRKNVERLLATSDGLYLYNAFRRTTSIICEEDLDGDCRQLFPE

B1: Heterogeneous nuclear ribonucleoprotein H3 (protein, UniProt P31942 1-346)
chain: MDWVMKHNGPNDASDGTVRLRGLPFGCSKEEIVQFFQGLEIVPNGITLTMDYQGRSTGEAFVQFASKEIAENALGKHKERIGHRYIEIFRSSRSEIKGFYDPPRRLLGQRPGPYDRPIGGRGGYYGAGRGSMYDRMRRGGDGYDGGYGGFDDYGGYNNYGYGNDGFDDRMRDGRGMGGHGYGGAGDASSGFHGGHFVHMRGLPFRATENDIANFFSPLNPIRVHIDIGADGRATGEADVEFVTHEDAVAAMSKDKNNMQHRYIELFLNSTPGGGSGMGGSGMGGYGRDGMDNQGGYGSVGRMGMGNNYSGGYGTPDGLGGYGRGGGGSGGYYGQGGMSGGGWRGMY
B2: DnaJ homolog subfamily C member 7 (protein, UniProt Q99615 1-494)
chain: MAAAAECDVVMAATEPELLDDQEAKREAETFKEQGNAYYAKKDYNEAYNYYTKAIDMCPKNASYYGNRAATLMMLGRFREALGDAQQSVRLDDSFVRGHLREGKCHLSLGNAMAACRSFQRALELDHKNAQAQQEFKNANAVMEYEKIAETDFEKRDFRKVVFCMDRALEFAPACHRFKILKAECLAMLGRYPEAQSVASDILRMDSTNADALYVRGLCLYYEDCIEKAVQFFVQALRMAPDHEKACIACRNAKALKAKKEDGNKAFKEGNYKLAYELYTEALGIDPNNIKTNAKLYCNRGTVNSKLRKLDDAIEDCTNAVKLDDTYIKAYLRRAQCYMDTEQYEEAVRDYEKVYQTEKTKEHKQLLKNAQLELKKSKRKDYYKILGVDKNASEDEIKKAYRKRALMHHPDRHSGASAEVQKEEEKKFKEVGEAFTILSDPKKKTRYDSGQDLDEEGMNMGDFDPNNIFKAFFGGPGGFSFEASGPGNFFFQFG
B3: 14-3-3 protein eta, endogenous (protein, UniProt Q04917 1-246)
chain: MGDREQLLQRARLAEQAERYDDMASAMKAVTELNEPLSNEDRNLLSVAYKNVVGARRSSWRVISSIEQKTMADGNEKKLEKVKAYREKIEKELETVCNDVLSLLDKFLIKNCNDFQYESKVFYLKMKGDYYRYLAEVASGEKKNSVVEASEAAYKEAFEISKEQMQPTHPIRLGLALNFSVFYYEIQNAPEQACLLAKQAFDDAIAELDTLNEDSYKDSTLIMQLLRDNLTLWTSDQQDEEAGEGN
B4: 14-3-3 θ, endogenous (protein, UniProt P27348 1-245)
chain: MEKTELIQKAKLAEQAERYDDMATCMKAVTEQGAELSNEERNLLSVAYKNVVGGRRSAWRVISSIEQKTDTSDKKLQLIKDYREKVESELRSICTTVLELLDKYLIANATNPESKVFYLKMKGDYFRYLAEVACGDDRKQTIDNSQGAYQEAFDISKKEMQPTHPIRLGLALNFSVFYYEILNNPELACTLAKTAFDEAIAELDTLNEDSYKDSTLIMQLLRDNLTLWTSDSAGEECDAAEGAEN
B5: Hsp90 co-chaperone Cdc37 (protein, UniProt Q16543 1-378)
chain: MVDYSVWDHIEVSDDEDETHPNIDTASLFRWRHQARVERMEQFQKEKEELDRGCRECKRKVAECQRKLKELEVAEGGKAELERLQAEAQQLRKEERSWEQKLEEMRKKEKSMPWNVDTLSKDGFSKSMVNTKPEKTEEDSEEVREQKHKTFVEKYEKQIKHFGMLRRWDDSQKYLSDNVHLVCEETANYLVIWCIDLEVEEKCALMEQVAHQTIVMQFILELAKSLKVDPRACFRQFFTKIKTADRQYMEGFNDELEAFKERVRGRAKLRIEKAMKEYEEEERKKRLGPGGLDPVEVYESLPEELQKCFDVKDVQMLQDAISKMDPTDAKYHMQRCIDSGLWVPNSKASEAKEGEEAGPGDPLLEAVPKTGDEKDVSV

Results are given in words; binding and its absence hold for the method and conditions named. In cells and extracts the contact can be indirect. These calls come from enrichment with a bait or labelling near it, and not all partners need be listed.

In the assay the target is Carboxy-terminally Halo-tagged UL97 (pFC14a-HA-UL97 WT) (human cytomegalovirus (HCMV)) (UniProt P16788). As to the kind of experiment: affinity purification with mass spectrometry; C-terminally Halo-tagged UL97 or Halo alone transiently expressed in HEK-293T; lysate on HaloLink beads, 1 h bead incubation; eluted with TEV protease; LC-MS/MS (Orbitrap Elite); two biological replicates.
For B1, the binding entry is given as “binds”. Consider B2, for which the binding result is “binds”. As for B3, the binding entry is “binds”. In the case of B4, the binding result is on record as “binds”. The entry for B5 is “binds”.
